The shares of active, inactive and inconclusive entries below differ from those in the screen. A potency beside an inconclusive call is a rough fit, not a confirmed value. Activity calls are given as the source filed them. Calls come from the whole dose curve; as a rule, active = well fitted curve in the direction sought with a large enough effect; inconclusive = small, poorly fitted or top-dose-only effect, or another doubt; inactive = no such curve, though single readings can be large; an effect the other way counts as inactive or inconclusive.
Assays:
[1] = Quantitative High-Throughput drug screen in 47 multiple myeloma cell lines against the NCATS MIPE library collection: Karpas417_ECACC cell viability assay (AID 1918961); conditions: Karpas417 myeloma viability, CellTiter-Glo ATP luminescence, 48 h; viability (% of DMSO): at 45.8 µM (top of the series)
How it was run: (§1)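 CellTiter-Glo luminescence (ATP) after 48 h compound exposure, 37C/5% CO2; 500 cells/well; MIPE 4.0 approved/investigational drugs pinned in; DMSO = 100%, media only = 0% viability.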

[2] = Quantitative High-Throughput drug screen in 47 multiple myeloma cell lines against the NCATS MIPE library collection: KHM11_PLB cell viability assay (AID 1918962); conditions: KHM11 myeloma cell viability, CellTiter-Glo ATP luminescence, 48 h; series mostly up to 45.8 µM; note: nearly all actives have a fitted effect of over 35% in size
How it was run: (§2)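 Steps: seed 500 cells per well; pin-transfer MIPE 4.0 library; incubate 48 h at 37C, 5% CO2, humidified; add CellTiter-Glo, 5 min room temperature; read luminescence.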

[3] = Quantitative High-Throughput drug screen in 47 multiple myeloma cell lines against the NCATS MIPE library collection: JIM3_ECACC cell viability assay (AID 1918963; note: nearly all actives have a fitted effect of over 35% in size); conditions: JIM3 myeloma viability, CellTiter-Glo ATP, 48 h; series mostly up to 45.8 µM
How it was run: as §2

[4] = Quantitative High-Throughput drug screen in 47 multiple myeloma cell lines against the NCATS MIPE library collection: JIM1_ECACC cell viability assay (AID 1918964); conditions: JIM1 myeloma viability, CellTiter-Glo ATP luminescence, 48 h; viability (% of DMSO): at 45.8 µM (top of the series)
How it was run: (§3)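 Inhibition of cell viability is measured here. Each line was plated at 500 cells per well, treated with MIPE 4.0 drugs, kept 48 hours at 37C, then assayed for ATP content by CellTiter-Glo luminescence.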

[5] = Quantitative High-Throughput drug screen in 47 multiple myeloma cell lines against the NCATS MIPE library collection: JJN3_DSMZ cell viability assay (AID 1918966; note: nearly all actives have a fitted effect of over 50% in size)
How it was run: as §3

[6] = Quantitative High-Throughput drug screen in 47 multiple myeloma cell lines against the NCATS MIPE library collection: H1112_PLB cell viability assay (AID 1918967; note: nearly all actives have a fitted effect of over 30% in size)
How it was run: as §3

[7] = Quantitative High-Throughput drug screen in 47 multiple myeloma cell lines against the NCATS MIPE library collection: KMS20_JCRB cell viability assay (AID 1918973); conditions: CellTiter-Glo ATP, 48 h; viability (% of DMSO): at 45.8 µM (top of the series); note: nearly all actives have a fitted effect of over 45% in size
How it was run: as §3

[8] = Quantitative High-Throughput drug screen in 47 multiple myeloma cell lines against the NCATS MIPE library collection: KMS21BM_JCRB cell viability assay (AID 1918974); conditions: ATP luminescence, 48 h; viability: at 45.8 µM (top of the series)
How it was run: as §3

[9] = Quantitative High-Throughput drug screen in 47 multiple myeloma cell lines against the NCATS MIPE library collection: KMS26_JCRB cell viability assay (AID 1918975); conditions: KMS26 myeloma cells viability, CellTiter-Glo ATP, 48 h; viability (% of DMSO): at 45.8 µM (top of the series); note: nearly all actives have a fitted effect of over 45% in size
How it was run: (§4)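 Viability readout: CellTiter-Glo luminescence following 5 min room-temperature incubation with reagent. Prior exposure: 48 h, 37C, humidified 5% CO2, 500 cells per well.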

[10] = Quantitative High-Throughput drug screen in 47 multiple myeloma cell lines against the NCATS MIPE library collection: MMM1_PLB cell viability assay (AID 1918976); note: nearly all actives have a fitted effect of over 35% in size
How it was run: (§5)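 500 cells/well; MIPE 4.0 drugs pin-transferred; 48 h, 37C, 5% CO2. CellTiter-Glo, 5 min RT, luminescence. Controls: DMSO 100%, media 0%.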

[11] = Quantitative High-Throughput drug screen in 47 multiple myeloma cell lines against the NCATS MIPE library collection: MOLP8_DSMZ cell viability assay (AID 1918977); note: nearly all actives have a fitted effect of over 45% in size
How it was run: as §5

[12] = Quantitative High-Throughput drug screen in 47 multiple myeloma cell lines against the NCATS MIPE library collection: MM1R_ATCC cell viability assay (AID 1918981); note: nearly all actives have a fitted effect of over 35% in size
How it was run: as §5

[13] = Quantitative High-Throughput drug screen in 47 multiple myeloma cell lines against the NCATS MIPE library collection: INA6_PLB cell viability assay (AID 1918965; note: nearly all actives have a fitted effect of over 55% in size); conditions: INA6 myeloma viability, CellTiter-Glo ATP luminescence, 48 h; series mostly up to 45.8 µM
How it was run: as §1

[14] = Quantitative High-Throughput drug screen in 47 multiple myeloma cell lines against the NCATS MIPE library collection: KMS27_JCRB cell viability assay (AID 1918970); conditions: KMS27 myeloma cells, CellTiter-Glo ATP viability, 48 h; viability (% of DMSO): at 45.8 µM (top of the series); note: nearly all actives have a fitted effect of over 30% in size
How it was run: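 KMS27_JCRB myeloma cells, 500 per well, exposed 48 h at 37 C, 5% CO2 to MIPE 4.0 compounds. Viability from ATP by CellTiter-Glo luminescence, normalized to DMSO (100%) and medium-only (0%) wells.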

[15] = Quantitative High-Throughput drug screen in 47 multiple myeloma cell lines against the NCATS MIPE library collection: KMS12BM_JCRB cell viability assay (AID 1918971); note: nearly all actives have a fitted effect of over 35% in size
How it was run: as §4

[16] = Quantitative High-Throughput drug screen in 47 multiple myeloma cell lines against the NCATS MIPE library collection: MM1S_ATCC cell viability assay (AID 1918980); note: nearly all actives have a fitted effect of over 45% in size
How it was run: as §5

[17] = Quantitative High-Throughput drug screen in 47 multiple myeloma cell lines against the NCATS MIPE library collection: Karpas25_ECACC cell viability assay (AID 1918968; note: nearly all actives have a fitted effect of over 35% in size)
How it was run: as §3

[18] = Quantitative High-Throughput drug screen in 47 multiple myeloma cell lines against the NCATS MIPE library collection: KMS12PE_JCRB cell viability assay (AID 1918972); conditions: KMS12PE myeloma viability, CellTiter-Glo ATP, 48 h; viability: at 45.8 µM (top of the series); note: nearly all actives have a fitted effect of over 30% in size
How it was run: as §1

[19] = Quantitative High-Throughput drug screen in 47 multiple myeloma cell lines against the NCATS MIPE library collection: NCIH929_DSMZ cell viability assay (AID 1918978); conditions: NCI-H929 myeloma viability, CellTiter-Glo ATP, 48 h; series mostly up to 45.8 µM; note: nearly all actives have a fitted effect of over 35% in size
How it was run: as §5

[20] = Quantitative High-Throughput drug screen in 47 multiple myeloma cell lines against the NCATS MIPE library collection: OCIMY1_PLB cell viability assay (AID 1918979); note: nearly all actives have a fitted effect of over 35% in size
How it was run: as §5

Measured: Potency
Potency is the fitted concentration of half-maximal effect.

COc1ccc2c(c1)CN(C)CC2c1ccc(Cl)c(Cl)c1 (stereo unspecified)
active: [1] 14800 nM | [4] 7430 nM | [8] 4.18 µM
inconclusive: [2] 0.0105 µM [rising, full curve, poor fit] | [3] 29.6 µM [cytotoxic, single point] | [5] 18.7 µM [cytotoxic, partial curve, poor fit] | [6] 29.6 µM [cytotoxic, single point] | [7] 37.2 µM [cytotoxic, single point] | [9] 1.5 nM [cytotoxic, full curve, poor fit] | [10] 20.9 µM [cytotoxic, partial curve, poor fit] | [11] 16.6 µM [cytotoxic, partial curve, poor fit] | [12] 29.6 µM [cytotoxic, single point]

CC(C)N(CCNC(=O)CN1CCCC1=O)C(C)C
inconclusive: [4] 3720 nM [cytotoxic, full curve, poor fit] | [14] 6.6 nM [cytotoxic, full curve, poor fit] | [8] 0.0372 µM [cytotoxic, full curve, poor fit] | [9] 105 nM [rising, full curve, poor fit] | [10] 6.62 µM [cytotoxic, full curve, poor fit] | [16] 0.001 µM
inactive: [1] | [2] | [13] | [5] | [7] | [11] | [12]
active: [15] 11.8 µM

CN(C)NC(=O)CCC(=O)O
inconclusive: [1] 1.5 nM [rising, full curve, poor fit] | [2] 33.2 µM [rising, single point] | [13] 23.5 µM [cytotoxic, single point] | [5] 6.62 µM [cytotoxic, partial curve, poor fit] | [7] 1.32 µM [cytotoxic, full curve, poor fit] | [8] 14.8 µM [rising, partial curve, poor fit] | [11] 7.43 µM [cytotoxic, full curve, poor fit] | [16] 26.4 µM [cytotoxic, single point] | [12] 0.0012 µM [rising, full curve, poor fit]
inactive: [4] | [17] | [14] | [9] | [10]

CC(NC(C)(C)C)C(=O)c1cccc(Cl)c1 (stereo unspecified)
inconclusive: [1] 26400 nM [cytotoxic, partial curve, poor fit] | [2] 0.0187 µM [rising, full curve, poor fit] | [4] 52.6 nM [rising, full curve, poor fit] | [6] 0.0526 µM [rising, full curve] | [15] 0.0296 µM [rising, full curve, poor fit] | [7] 4.18 µM [cytotoxic, full curve, poor fit] | [10] 0.0083 µM [rising, full curve, poor fit] | [11] 0.0023 µM [rising, full curve] | [16] 0.833 µM [cytotoxic, full curve] | [12] 0.0019 µM [rising, full curve, poor fit]
inactive: [13] | [5] | [14] | [9]

CC1=C2C[C@@H]3[C@@H](CC=C4C[C@@H](O)CC[C@@]43C)[C@@H]2CC[C@]12O[C@H]1C[C@H](C)CN[C@H]1[C@H]2C
active: [7] 0.0469 µM | [12] 14.8 µM
inconclusive: [1] 6620 nM [rising, partial curve, poor fit] | [2] 26.4 µM [cytotoxic, partial curve, poor fit] | [5] 1.87 µM [cytotoxic, partial curve, poor fit] | [15] 10.5 µM [cytotoxic, partial curve, poor fit] | [8] 8.33 µM [rising, full curve] | [16] 33.2 µM [cytotoxic, partial curve, poor fit]
inactive: [4] | [13] | [6] | [14] | [18] | [11]

CCOC(=O)c1cncn1[C@H](C)c1ccccc1
active: [15] 5.26 µM
inactive: [2] | [4] | [13] | [14] | [9]
inconclusive: [1] 3.7 nM [rising, full curve, poor fit] | [5] 4.69 µM [cytotoxic, partial curve, poor fit] | [18] 0.935 µM [cytotoxic, partial curve, poor fit] | [7] 0.148 µM [rising, full curve, poor fit] | [8] 0.0083 µM [cytotoxic, full curve, poor fit] | [11] 4.69 µM [cytotoxic, partial curve, poor fit] | [16] 20.9 µM [cytotoxic, partial curve, poor fit]

O=C(Oc1ccc([N+](=O)[O-])cc1)N1CCN(Cc2cccc(Oc3ccccc3)c2)CC1
inconclusive: [1] 1.9 nM [cytotoxic, full curve, poor fit] | [2] 1.66 µM [rising, partial curve, poor fit] | [4] 9.3 nM [rising, full curve, poor fit] | [13] 0.296 µM [rising, full curve, poor fit] | [5] 0.0026 µM [rising, full curve, poor fit] | [17] 37.2 µM [cytotoxic, single point] | [15] 0.0021 µM [rising, full curve, poor fit] | [18] 7.43 µM [cytotoxic, full curve, poor fit] | [7] 37.2 µM [cytotoxic, single point] | [9] 3720 nM [rising, partial curve, poor fit] | [10] 33.2 µM [cytotoxic, single point] | [19] 37.2 µM [cytotoxic, single point] | [20] 52.6 µM [rising, partial curve, poor fit]
active: [16] 11.8 µM
inactive: [11]

C[C@]12CCC(=O)C(O)=C1CC[C@@H]1[C@H]3CCC(=O)[C@@]3(C)CC[C@@H]12
active: [15] 20.9 µM
inconclusive: [1] 4.2 nM [cytotoxic, full curve, poor fit] | [4] 3.3 nM [cytotoxic, full curve, poor fit] | [13] 33.2 µM [cytotoxic, single point] | [5] 20.9 µM [cytotoxic, partial curve, poor fit] | [17] 18.7 µM [cytotoxic, partial curve, poor fit] | [7] 11.8 µM [cytotoxic, full curve, poor fit] | [8] 37.2 µM [rising, partial curve] | [11] 2.64 µM [cytotoxic, full curve, poor fit] | [16] 18.7 µM [cytotoxic, partial curve, poor fit] | [12] 23.5 µM [cytotoxic, single point]
inactive: [2] | [9] | [20]

Cc1ccccc1-n1c(Cn2cnc3c(N)ncnc32)nc2cccc(C)c2c1=O
inconclusive: [2] 0.469 µM [cytotoxic, full curve] | [4] 148 nM [cytotoxic, full curve] | [6] 3.72 µM [cytotoxic, partial curve] | [20] 0.296 µM [cytotoxic, partial curve]
active: [1] 132 nM | [13] 0.935 µM | [5] 0.833 µM | [14] 296 nM | [8] 0.235 µM | [9] 2960 nM | [10] 0.166 µM | [11] 0.0743 µM

CN1CCN(C(=O)O[C@H]2c3nccnc3C(=O)N2c2ccc(Cl)cn2)CC1
inconclusive: [1] 16600 nM [rising, partial curve, poor fit] | [5] 37.2 µM [cytotoxic, single point] | [15] 5.9 µM [cytotoxic, partial curve, poor fit] | [7] 0.0166 µM [cytotoxic, full curve, poor fit] | [8] 29.6 µM [rising, partial curve] | [10] 18.7 µM [cytotoxic, partial curve, poor fit] | [11] 9.35 µM [cytotoxic, partial curve, poor fit]
not listed: [3] | [17] | [18] | [19] | [20]
inactive: all other assays above

CN(C)CCc1ccc(O)cc1
inconclusive: [2] 2.96 µM [cytotoxic, full curve, poor fit] | [4] 7.4 nM [rising, full curve, poor fit] | [13] 2.96 µM [cytotoxic, full curve, poor fit] | [5] 18.7 µM [cytotoxic, partial curve, poor fit] | [17] 16.6 µM [cytotoxic, partial curve, poor fit] | [7] 0.059 µM [cytotoxic, full curve, poor fit]
inactive: [1] | [14] | [15] | [8] | [9] | [11] | [20] | [16]

From PubChem BioAssay (NCATS)
